Experimental findings from publication doi:10.1101/2021.06.21.449233 are described below.

The chains behind the UniProt entries cited, without tags or fusion partners. Where a name states a change or a piece, a line headed by the entry shows the natural chain unless it says otherwise.
UniProt P32245: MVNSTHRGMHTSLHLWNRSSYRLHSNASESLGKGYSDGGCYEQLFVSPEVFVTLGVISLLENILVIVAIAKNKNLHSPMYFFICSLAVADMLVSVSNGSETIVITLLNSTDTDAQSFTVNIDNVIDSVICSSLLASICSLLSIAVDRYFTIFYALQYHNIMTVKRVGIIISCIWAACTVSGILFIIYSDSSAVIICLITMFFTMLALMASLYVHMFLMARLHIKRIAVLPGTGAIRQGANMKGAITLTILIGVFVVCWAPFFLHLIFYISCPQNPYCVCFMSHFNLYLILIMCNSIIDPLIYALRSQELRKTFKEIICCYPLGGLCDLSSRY

The target in assay [1] is MC4R-Rluc8 (human) (UniProt P32245). As to the kind of experiment: FRET or BRET. Background: BRET reads energy transfer from a luciferase to a nearby fluorophore.
Assay [2] addresses MC4R-Rluc8 T150A (human) (UniProt P32245). As to the kind of experiment: FRET or BRET.

No constants are given. Whether binding was seen depends on the method and setting. In cells and extracts the contact can be indirect. Some results given as binding are weak or reduced against the parent protein; the word gives no strength.

“β-arrestin 2-Venus (from UniProt P32121 1-409)”: the binding result in assay [1] and in assay [2] was “binds” each time.
